Measurements: patent CN108948200A
These are yes or no findings as the source states them, for the method shown. Some binding calls cover weakened binding; strength is not graded here.

Chains of the proteins cited; added tags and fusions are not shown. Residues count along the entry.
UniProt P07333, residues 20-512: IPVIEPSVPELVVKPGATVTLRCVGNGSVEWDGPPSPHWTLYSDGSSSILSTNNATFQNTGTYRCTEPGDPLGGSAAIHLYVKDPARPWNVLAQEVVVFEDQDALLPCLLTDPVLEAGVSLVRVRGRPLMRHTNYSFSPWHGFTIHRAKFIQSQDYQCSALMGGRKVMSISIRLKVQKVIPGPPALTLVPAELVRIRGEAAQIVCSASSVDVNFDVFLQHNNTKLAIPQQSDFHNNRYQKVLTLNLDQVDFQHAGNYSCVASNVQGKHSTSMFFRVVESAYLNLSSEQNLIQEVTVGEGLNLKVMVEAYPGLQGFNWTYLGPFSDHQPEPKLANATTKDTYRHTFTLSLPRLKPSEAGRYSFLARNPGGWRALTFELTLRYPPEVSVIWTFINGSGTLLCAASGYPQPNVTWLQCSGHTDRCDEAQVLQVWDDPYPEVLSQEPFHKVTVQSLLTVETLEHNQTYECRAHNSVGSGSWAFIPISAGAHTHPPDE

How the values were obtained:
[1] = molecular target: 生物素标记人CSF1R Fc蛋白 (human) (UniProt P07333); assay: capture ELISA with biotinylated human CSF1R Fc and flow cytometry on 293F cells over-expressing human CSF1R (Table 2, not shown)
[2] = molecular target: 重组人CSF1R带his标签的蛋白 (human) (UniProt P07333); assay: ELISA of hybridoma supernatant on coated human CSF1R-his

binding [1]: binds
binding [2]: binds
B1: 2E10 抗人CSF-1R小鼠单克隆抗体 (antibody, V domains shown)
VH: DVQLVDSGGGLVQPGGSRKLSCAASGFTFSSFGMHWVRQAPEKGLEWVAYISSGSNTIYYADTVKGRFTISRDNPKNTLFLQMTSLRSEDTAIYYCARWYGNYNYYAMDYWGQGTSVTVSS
VL: DIQMTQSPASLSASVGETVTITCGASENIYGTLNWYQRKQGKSPQLLIYGATNLADGLSSRFSGSGSGRQYSLKISSLHPDDIATYYCQNVLGIPFTFGSGTKLEIK
